Hit rate of the full screen: of about 580,000 compounds, about 6,100 (1.1%) were called active. Inconclusive results, whose numbers are uncertain, are shown with a selection of clear calls. The call rests on the fitted dose curve; in most records, active means well fitted inhibition curve with a large enough effect; inconclusive means small, poorly fitted or top-dose-only effect, or another doubt; inactive means no such curve, though single readings can be large or run the other way. Potencies beside an inconclusive call are fits to weak or partial responses and may not hold up.
Target: Polyunsaturated fatty acid lipoxygenase ALOX12 (Homo sapiens) (UniProt P18054)
Assay: Primary qHTS assay for inhibitors of human arachidonate 12S-lipoxygenase (ALOX12): Round 2
Conditions: purified 12hLO, xylenol orange hydroperoxide absorbance; activity change, negative = inhibition: at 108 µM (top of the series) unless noted
Method in brief: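 Purified human 12hLO at 150 nM in 25 mM Hepes, 0.01% Triton X-100, pH 7.0, preincubated 15 min at room temperature with compound. Reaction started with 40 uM arachidonic acid, 30 min at room temperature. Hydroperoxide measured by Fe-xylenol orange, 573/405 nm absorbance ratio.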
On the % scale 0 is the no-effect control and ±100 the full control effect; potency means the concentration at half of the fitted maximal effect.

Sequences of proteins named here, by UniProt entry; tags and fusion partners are left off. A change or cut given only in a name is not applied to a line headed by its entry.
UniProt P18054: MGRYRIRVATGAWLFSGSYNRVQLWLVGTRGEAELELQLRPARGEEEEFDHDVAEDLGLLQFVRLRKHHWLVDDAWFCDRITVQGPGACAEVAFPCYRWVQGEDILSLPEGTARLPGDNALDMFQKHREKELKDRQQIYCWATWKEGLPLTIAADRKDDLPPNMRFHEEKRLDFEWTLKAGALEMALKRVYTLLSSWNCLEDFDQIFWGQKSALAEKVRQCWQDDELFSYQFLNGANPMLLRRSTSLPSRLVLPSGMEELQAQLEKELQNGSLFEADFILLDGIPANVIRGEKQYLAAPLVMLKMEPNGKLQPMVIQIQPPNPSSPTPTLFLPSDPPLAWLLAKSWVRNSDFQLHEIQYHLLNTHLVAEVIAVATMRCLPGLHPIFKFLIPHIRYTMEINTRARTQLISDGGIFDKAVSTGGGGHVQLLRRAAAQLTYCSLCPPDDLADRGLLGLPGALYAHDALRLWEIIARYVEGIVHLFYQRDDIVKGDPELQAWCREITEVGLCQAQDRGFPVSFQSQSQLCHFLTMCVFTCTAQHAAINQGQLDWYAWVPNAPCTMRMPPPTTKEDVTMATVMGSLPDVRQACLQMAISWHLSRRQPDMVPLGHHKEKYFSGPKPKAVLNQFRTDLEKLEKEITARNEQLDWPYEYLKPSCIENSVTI

Compound | Potency | activity change, negative = inhibition
O=C(/C=C/Nc1ccccc1F)c1ccc(Br)cc1 | inconclusive: 44.7 µM [inhibitor, partial curve, poor fit] | –
CCCn1nc(C(=O)OCC(=O)Nc2c(C)cccc2C)c2ccccc2c1=O | – | inconclusive: -30.2% [inhibitor]
O=C1NC[C@H](Cc2ccc(O)cc2)N(C[C@H]2CCCN2C[C@H](Cc2ccccc2)N2C[C@H](Cc3ccccc3)N(CCc3ccccc3)C(=O)C2=O)C1=O | inconclusive: 39.8 µM [inhibitor, partial curve] | –
Brc1ccccc1OCCCN1CCCCCC1 | inconclusive: 3.16 µM [inhibitor, full curve] | –
CC(Oc1ccccc1F)C(=O)NCC1(N2CCOCC2)CCCCC1 (stereo not drawn) | inconclusive: 35.5 µM [inhibitor, partial curve, poor fit] | –
N#Cc1nc(Cc2cccc3ccccc23)oc1NCc1ccc2c(c1)OCO2 | inconclusive: 89.1 µM [inhibitor, single point] | –
Cc1noc(C)c1C(=O)Nc1nc2ccc(F)cc2s1 | inactive | –
COc1ccc(CCNC(=O)c2ccc(-c3ccc([N+](=O)[O-])cc3Cl)o2)cc1 | inconclusive: 25.1 µM [inhibitor, full curve, poor fit] | –
COc1ccccc1C1=CC(=O)C[C@H](c2ccc(Cl)cc2)C1 | inactive | –
Fc1ccc(N/N=C(/c2ccccc2)c2ccccn2)cc1 | inconclusive: 7.08 µM [inhibitor, full curve, poor fit] | –
COc1ccccc1N1CCN(C(=O)COCC(=O)NCCc2ccccc2)CC1 | inactive | –
CCOC(=O)c1c(NC(=O)Cn2ccsc2=N)sc(C)c1C | inconclusive: 15.8 µM [inhibitor, full curve] | –
COc1ccc(C2CC(c3ccccc3Cl)=NN2c2ccc(S(N)(=O)=O)cc2)cc1 (stereo not drawn) | inconclusive: 79.4 µM [inhibitor, partial curve, poor fit] | –
Clc1ccc(-c2nnc(COc3nncc4ccccc34)o2)cc1 | inactive | –
COc1ccc(CN2CCN(C(=O)c3ccc(F)cc3)CC2)c(OC)c1 | inconclusive: 2.24 µM [inhibitor, full curve, poor fit] | –
O=C(C1=C[C@@H](c2ccc(C(F)(F)F)cc2)C[C@@H](OCCCCO)O1)N1CCCCCCC1 | inconclusive: 112 µM [inhibitor, single point] | –
CC(C)NC(=O)Nc1c(NC2CCCCC2)c2ccccc2oc1=O | inactive | –
CCC(=O)Nc1nc2ccc3sc(C)nc3c2s1 | inconclusive: 100 µM [inhibitor, single point] | –
Cn1cc(S(=O)(=O)N2CCCC(C(=O)Nc3nn(Cc4ccccc4Cl)cc3Cl)C2)cn1 (stereo not drawn) | inactive | –
CCOC(=O)Cc1csc(NC(=S)NC(=O)c2ccc([N+](=O)[O-])cc2)n1 | inconclusive: 20 µM [inhibitor, full curve, poor fit] | –
Cc1ccc2c(c1)CCCN2S(=O)(=O)c1cccc(C(=O)Nc2ccccc2C(=O)O)c1 | inconclusive: 44.7 µM [inhibitor, partial curve, poor fit] | –
COc1cccc(Nc2nc(C(N)C3CCCCC3)cs2)n1 (stereo not drawn) | inactive | –

12 entries from above, reformatted:
Compound	Potency	activity change, negative = inhibition
COc1ccc(CCNC(=O)c2ccc(-c3ccc([N+](=O)[O-])cc3Cl)o2)cc1	inconclusive: 25.1 µM [inhibitor, full curve, poor fit]	–
COc1ccccc1C1=CC(=O)C[C@H](c2ccc(Cl)cc2)C1	inactive	–
Fc1ccc(N/N=C(/c2ccccc2)c2ccccn2)cc1	inconclusive: 7.08 µM [inhibitor, full curve, poor fit]	–
COc1ccccc1N1CCN(C(=O)COCC(=O)NCCc2ccccc2)CC1	inactive	–
CCOC(=O)c1c(NC(=O)Cn2ccsc2=N)sc(C)c1C	inconclusive: 15.8 µM [inhibitor, full curve]	–
COc1ccc(C2CC(c3ccccc3Cl)=NN2c2ccc(S(N)(=O)=O)cc2)cc1 (stereo not drawn)	inconclusive: 79.4 µM [inhibitor, partial curve, poor fit]	–
Clc1ccc(-c2nnc(COc3nncc4ccccc34)o2)cc1	inactive	–
COc1ccc(CN2CCN(C(=O)c3ccc(F)cc3)CC2)c(OC)c1	inconclusive: 2.24 µM [inhibitor, full curve, poor fit]	–
O=C(C1=C[C@@H](c2ccc(C(F)(F)F)cc2)C[C@@H](OCCCCO)O1)N1CCCCCCC1	inconclusive: 112 µM [inhibitor, single point]	–
CC(C)NC(=O)Nc1c(NC2CCCCC2)c2ccccc2oc1=O	inactive	–
CCC(=O)Nc1nc2ccc3sc(C)nc3c2s1	inconclusive: 100 µM [inhibitor, single point]	–
Cn1cc(S(=O)(=O)N2CCCC(C(=O)Nc3nn(Cc4ccccc4Cl)cc3Cl)C2)cn1 (stereo not drawn)	inactive	–

Carrying on.

Compound | Potency | activity change, negative = inhibition
Nc1ncnc2c1ncn2C1C[C@H](O)[C@@H](CO)O1 (stereo partly drawn) | inactive | –
COC(=O)C1=C(C)N(Cc2ccc(C(F)(F)F)cc2)C(=NCc2ccccc2)NC1c1cccc(F)c1 (stereo not drawn) | inconclusive: 44.7 µM [inhibitor, partial curve, poor fit] | –
O=c1c(O)c(-c2ccc(O[C@@H]3O[C@H](CO)[C@@H](O)[C@H](O)[C@H]3O)c(O)c2)oc2cc(O)cc(O)c12 | inactive | –
CCn1c(=O)c2cc(C(=O)NCCc3ccc(OC)c(OC)c3)sc2c2ccccc21 | inactive | –
O=C(O)CN1C(=O)/C(=C\c2cccc(OCc3ccc(Cl)cc3Cl)c2)SC1=S | active: 25.1 µM | –
Cc1ccccc1-c1cc(O)c2c(c1)CN(Cc1nccn1C)CCO2 | inactive | –
O=C(COC(=O)CCCN1C(=O)c2ccccc2C1=O)Nc1ncc(Cl)cc1Cl | inconclusive: 35.5 µM [inhibitor, single point] | –
O=C(Cn1cc(S(=O)(=O)Cc2cccc(F)c2)c2ccccc21)N1CCOCC1 | inconclusive: 44.7 µM [inhibitor, partial curve, poor fit] | –
N#C/C(=C/c1ccccc1)C(=O)Nc1ccc(N2CCOCC2)cc1 | active: 2.51 µM | –
CC(=C\c1ccco1)/C=C(\C#N)C(=O)NCCc1c[nH]c2ccccc12 | inconclusive: 50.1 µM [inhibitor, partial curve, poor fit] | –
CCOc1ccc(CNC(=O)c2ccc(Sc3ccc(C)cc3)c(N)c2)cc1OC | inconclusive: 56.2 µM [inhibitor, partial curve, poor fit] | –
COc1ccccc1N1CCN(C(=O)CNC(=O)c2ccc(Cl)cc2Cl)CC1 | inconclusive: 50.1 µM [inhibitor, partial curve, poor fit] | –
O=C(NC1CCNCC1)C1CCCN(c2nc(-c3ccccc3)nc3c2CCC3)C1 (stereo not drawn) | inconclusive: 25.1 µM [inhibitor, full curve] | –
O=C(Nc1cc(Cl)ccc1Cl)C1CCCO1 (stereo not drawn) | inconclusive: 17.8 µM [inhibitor, single point] | –
Nc1nc(Nc2cccc(F)c2)nc(NCc2ccco2)c1[N+](=O)[O-] | inconclusive: 112 µM [inhibitor, single point] | –
COc1cc(NC2c3ccccc3C(=O)N2Cc2ccc3c(c2)OCO3)cc(OC)c1OC (stereo not drawn) | inconclusive: 25.1 µM [inhibitor, single point] | –
COC(=O)c1cc2c(ccc3ccccc32)oc1=O | inconclusive: 112 µM [inhibitor, single point] | –
c1ccc(CCc2nn3c(Cn4nnc5ccccc54)nnc3s2)cc1 | inactive | –
COc1ccc(CCNC(=O)c2csc(NC3CC3)n2)cc1 | inactive | –
CN(C)c1ccc(N=Cc2nc(-c3ccccc3)oc2OC(=O)c2cccc(Br)c2)cc1 | inconclusive: 35.5 µM [inhibitor, partial curve, poor fit] | –
CSCCC(C(=O)OCC(=O)c1ccc(C)c(C)c1)N1C(=O)c2ccccc2C1=O (stereo not drawn) | inconclusive: 28.2 µM [inhibitor, partial curve, poor fit] | –
